Results reported in PMC8342377.
Results are given in words; binding and its absence hold for the method and conditions named. Binding seen in cells or lysates may run through a third protein. A result given as binding can be weak or reduced; the word gives no strength.

Chains of the proteins cited; added tags and fusions are not shown. Lines headed by an entry give the natural chain unless they say otherwise; changes in a name come on top. Residues count along the entry.
UniProt P14780: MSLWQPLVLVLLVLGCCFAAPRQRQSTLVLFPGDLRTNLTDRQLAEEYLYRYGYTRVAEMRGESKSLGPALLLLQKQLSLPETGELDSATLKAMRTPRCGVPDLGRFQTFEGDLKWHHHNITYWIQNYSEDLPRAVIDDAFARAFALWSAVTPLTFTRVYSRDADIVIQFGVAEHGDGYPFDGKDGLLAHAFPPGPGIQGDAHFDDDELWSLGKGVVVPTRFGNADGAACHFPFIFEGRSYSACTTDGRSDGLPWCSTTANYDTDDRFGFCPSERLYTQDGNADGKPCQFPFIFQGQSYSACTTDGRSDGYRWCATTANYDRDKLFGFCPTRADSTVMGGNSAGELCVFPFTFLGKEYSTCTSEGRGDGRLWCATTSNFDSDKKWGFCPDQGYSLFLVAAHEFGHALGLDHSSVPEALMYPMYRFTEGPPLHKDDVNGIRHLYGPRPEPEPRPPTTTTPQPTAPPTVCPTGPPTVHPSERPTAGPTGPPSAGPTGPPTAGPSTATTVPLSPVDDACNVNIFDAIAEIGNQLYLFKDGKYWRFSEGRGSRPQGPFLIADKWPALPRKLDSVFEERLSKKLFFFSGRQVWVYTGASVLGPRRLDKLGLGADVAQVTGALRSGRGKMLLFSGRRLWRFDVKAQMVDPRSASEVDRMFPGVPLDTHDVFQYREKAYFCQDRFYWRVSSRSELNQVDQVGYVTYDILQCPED
UniProt P08253: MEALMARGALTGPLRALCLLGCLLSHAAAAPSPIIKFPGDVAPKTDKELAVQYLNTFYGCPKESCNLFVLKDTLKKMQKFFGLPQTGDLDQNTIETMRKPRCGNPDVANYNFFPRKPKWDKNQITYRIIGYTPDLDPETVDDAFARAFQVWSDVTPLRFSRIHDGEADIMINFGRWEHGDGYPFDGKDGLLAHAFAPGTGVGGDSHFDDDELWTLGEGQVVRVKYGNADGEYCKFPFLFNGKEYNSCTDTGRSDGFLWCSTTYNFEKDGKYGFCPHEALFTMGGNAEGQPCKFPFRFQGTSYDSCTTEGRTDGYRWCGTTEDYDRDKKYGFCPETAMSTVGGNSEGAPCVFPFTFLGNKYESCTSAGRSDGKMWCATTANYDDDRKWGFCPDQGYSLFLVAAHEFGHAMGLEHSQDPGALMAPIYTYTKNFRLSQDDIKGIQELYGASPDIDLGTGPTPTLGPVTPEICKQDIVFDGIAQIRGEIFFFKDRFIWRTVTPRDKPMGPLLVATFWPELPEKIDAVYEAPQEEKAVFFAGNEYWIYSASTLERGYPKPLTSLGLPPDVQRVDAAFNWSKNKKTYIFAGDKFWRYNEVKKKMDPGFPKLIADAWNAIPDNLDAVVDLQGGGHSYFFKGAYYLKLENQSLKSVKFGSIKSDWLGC
UniProt P01033, residues 24-207: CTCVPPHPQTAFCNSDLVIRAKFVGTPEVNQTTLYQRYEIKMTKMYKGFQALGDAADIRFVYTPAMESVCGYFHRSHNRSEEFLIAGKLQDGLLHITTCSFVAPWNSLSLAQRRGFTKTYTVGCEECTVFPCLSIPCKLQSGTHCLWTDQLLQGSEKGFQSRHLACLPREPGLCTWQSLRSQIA

How the values were obtained:
[1] = molecular target: MMP-9 (human (endogenous in dentin)) (UniProt P14780); experiment: co-IP; concentrated dentin proteins > 30 kDa (Vivaspin cut-off 30 kDa); anti-MMP-2 or anti-MMP-9 antibody overnight at 4 °C, Protein A/G Plus-Agarose 4 h at 4 °C; 12% SDS-PAGE and immunoblot for TIMP-1
[2] = molecular target: MMP-2 (human (endogenous in dentin)) (UniProt P08253); experiment: as above

binding [1]: binds
binding [2]: binds
Substance: tissue inhibitor of metalloproteinases-1 (from UniProt P01033 24-207)
